PubChem BioAssay AID686937 – Drosophila RNAi Screening Center – 2013
In all, the deposit lists about 23,000 reagents; shown is a random part of those with a known target gene and a result. 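Reduced-secretion tags in replicate 1 do not always agree with the z-scores; no criterion for assigning the tags was given.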 Names joined by + are all predicted targets of the reagent. Further read-outs or replicates are left out here. Not given: the amount of reagent.

- Purpose: 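Knock-downs that reduce output of a secreted reporter enzyme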 (primary screen)
- Cells: Drosophila S2 cells expressing secreted horseradish peroxidase
- Reagents: long dsRNA against Drosophila genes
- Timing: about 5.5 days (5 days dsRNA, then 12 h reporter induction)
- Treatment: reporter expression induced after 5 days of dsRNA, read 12 h later; inducer not stated
- Read-out: 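Chemiluminescent measurement of peroxidase in the medium 12 h after reporter induction, following 5 days of dsRNA, given as a z-score per plate; higher means more secretion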
- Reading the numbers: z-score: higher = more reporter secreted into medium

| gene knocked down | dsRNA | z-score, replicate 1 | z-score, replicate 2 | z-score, replicate 3 |
| --- | --- | --- | --- | --- |
| ArfGAP3 | DRSC11794 | 0.23 | 0.3 | – |
| zetaCOP | DRSC11412 | -7.31 | -7.67 | – |
| CG5815 | DRSC14135 | 0.44 | 0.77 | – |
| MED15 | DRSC00267 | -3.6 | -3.55 | – |
| CG34253 + lncRNA:CR32194 | DRSC09531 | -0.92 | -0.63 | – |
| CG14384 | DRSC14842 | 0.41 | 0.27 | – |
| Lpin | DRSC07241 | 0.15 | 0.25 | – |
| AstA | DRSC14634 | 0.48 | 0.48 | – |
| CG10948 | DRSC09806 | 0.15 | 0.25 | – |
| FipoQ | DRSC15413 | 0.51 | 0.59 | – |
| CG9289 | DRSC03187 | 0.4 | 0.2 | – |
| CG10209 | DRSC05980 | 0.17 | 0.18 | – |
| velo | DRSC08841 | -4.31 | -4.04 | – |
| velo | DRSC09698 | -0.55 | -0.33 | – |
| Npc2c | DRSC15523 | 0.33 | -0.56 | – |
| Nfs1 | DRSC02154 | -0.02 | 0.3 | – |
| CG14431 | DRSC17925 | 0.25 | 0.66 | – |
| CG14431 | DRSC17926 | -4.11 | -2.76 | – |
| lncRNA:CR43435 | DRSC12414 | 0.42 | -0.02 | – |
| retm | DRSC03252 | 0.26 | 0.36 | – |
| didum | DRSC07603 | 0.35 | 0.31 | – |
| CG15256 | DRSC01491 | -8.23 | -10.9 | – |
| CG15256 | DRSC01940 | 0.13 | -0.09 | – |
| CG4949 | DRSC19926 | 0.32 | 0.6 | – |
| fs(1)N | DRSC18578 | 0.36 | 0.22 | – |
| Trpgamma | DRSC03626 | 0.54 | 0.44 | – |
| Dhc98D | DRSC16645 | 0.3 | -0.02 | – |
| eRF1 | DRSC11779 | -0.88 | -1.49 | – |
| l(2)gd1 | DRSC02773 | 0 | 0.17 | – |
| ND-B17 | DRSC01981 | -0.09 | -0.04 | – |
| spag4 | DRSC02973 | 0.45 | 0.3 | – |
| CG42552 (retired record) | DRSC11512 | -1.27 | 0.22 | – |
| CG8248 | DRSC07124 | 0.3 | 0.27 | – |
| CG3942 | DRSC15525 | 0.4 | 0.22 | – |
| Inx6 | DRSC20579 | 0.45 | 0.46 | – |
| Best2 | DRSC09712 | 0.06 | 0.33 | – |
| Camta | DRSC06440 | 0.27 | 0.21 | – |
| Camta | DRSC06441 | 0.39 | 0.21 | 0.25 |
| Camta | DRSC07272 | 0.35 | 0.27 | – |
| CG5727 | DRSC02882 | 0.01 | 0.21 | – |
| tai | DRSC02207 | -0.21 | -0.53 | – |
| tai | DRSC02673 | 0.62 | 0.46 | – |
| CG13078 | DRSC02182 | 0.36 | 0.3 | – |
| Ubqn | DRSC19581 | -0.03 | -0.32 | – |
| Gpat4 | DRSC04345 | -0.24 | -0.41 | – |
| Prp4k | DRSC08144 | 0.43 | -0.16 | – |
| CG31998 | DRSC17137 | 0.25 | 0.36 | – |
| CG31998 | DRSC17138 | 0.3 | 0.39 | – |
| Osi17 | DRSC12284 | 0.4 | 0.76 | – |
| Dp | DRSC07402 | -0.87 | -1.1 | – |
| alpha-Est1 | DRSC12612 | 0.37 | 0.53 | – |
| CG13436 | DRSC06396 | 0.57 | 0.34 | – |
| CG15506 | DRSC15047 | 0.35 | 0.44 | – |
| CG1792 | DRSC15290 | 0.22 | 0.23 | – |
| Edem2 | DRSC02877 | -0.44 | 0.41 | – |
| Muc96D | DRSC13709 | 0.49 | 0.38 | 0.63 |
| Muc96D | DRSC21609 | -0.19 | -0.32 | – |
| Gk1 | DRSC08533 | -0.04 | 0.01 | – |
| Gk1 | DRSC08534 | -0.04 | 0.21 | – |
| tweek | DRSC02433 | -0.07 | 0.25 | – |
| tweek | DRSC02434 | -0.43 | -0.33 | – |
| tweek | DRSC02785 | 0.42 | 0.2 | – |
| CG11113 | DRSC06039 | 0.26 | 0.22 | – |
| CG32695 | DRSC17975 | -0.26 | 0.04 | – |
| Jhbp1 | DRSC12167 | -0.22 | 0.2 | – |
| CG5641 | DRSC15852 | 0.34 | 0.44 | – |
| CG9760 | DRSC11101 | 0.24 | 0.33 | – |
| ndl | DRSC11374 | 0.32 | 0.3 | – |
| Pp2C1 | DRSC18699 | -0.22 | -0.33 | – |
| eIF3m | DRSC07142 | -1.84 | -1.98 | – |
| htk | DRSC20029 | -1.64 | -2.83 | – |
| htk | DRSC20031 | -1.76 | -0.96 | – |
| park + Targ3 | DRSC11617 | 0.22 | 0.28 | – |
| vir | DRSC04377 | 0.5 | 0.11 | – |
| CG8012 | DRSC10951 | 0.21 | 0.16 | – |
| l(1)sc | DRSC18789 | 0.27 | 0.38 | – |
| PolrMT | DRSC00660 | -0.04 | -0.84 | – |
| Pex16 | DRSC11750 | 0.19 | 0.12 | – |
| CG34203 | DRSC03855 | 0.08 | 0.17 | – |
| CG18265 | DRSC10310 | -0.27 | 0.29 | – |
| CG5246 | DRSC15751 | 0.22 | 0.2 | – |
| CG8950 | DRSC07300 | 0.29 | 0.28 | – |
| CG15120 | DRSC06542 | 0.35 | 0.13 | – |
| Or67a | DRSC11240 | 0.42 | 0.42 | – |
| Odc1 | DRSC07482 | 0.27 | 0.35 | – |
| Ugt49C1 | DRSC04252 | 0.12 | 0.29 | – |
| CG4743 | DRSC15636 | 0.23 | 0.25 | – |
| CG31510 | DRSC14182 | 0.26 | -0.05 | – |
| CkIIalpha-i1 | DRSC11115 | 0.56 | 0.42 | – |
| CG32713 | DRSC22766 | -0.37 | 0.33 | – |
| ovo | DRSC18050 | 0.51 | 0.22 | – |
| ovo | DRSC18812 | 0.41 | 0.17 | – |
| CG6951 | DRSC10755 | 0.05 | 0.29 | – |
| Pex7 | DRSC10651 | 0.27 | 0.17 | – |
| CG31086 + CG31323 | DRSC14902 | 0.18 | 0.07 | – |
| side-VIII | DRSC05880 | 0.43 | -0.3 | – |
| side-VIII | DRSC05883 | -1.17 | -0.47 | – |
| side-VIII | DRSC06157 | 0.37 | 0.38 | 0.25 |
| TwdlE | DRSC02392 | 0.45 | 0.48 | – |
| CG42570 | DRSC09391 | 0.53 | 0.32 | – |
| CG9215 | DRSC20171 | 0.24 | 0.36 | – |
| dpr15 | DRSC12891 | 0.53 | 0.3 | – |
| dpr15 | DRSC14187 | 0.36 | -0.05 | – |
| dpr15 | DRSC14188 | 0.22 | 0.23 | – |

Individual results from the list:
Entry of Ugt49C1 [DRSC04252] in “z-score, replicate 1”: 0.12
Under “z-score, replicate 2”, side-VIII [DRSC05880] has -0.3
Result of Odc1 [DRSC07482] under “z-score, replicate 2”: 0.35
tai [DRSC02207], z-score, replicate 1 = -0.21
CG31510 [DRSC14182], z-score, replicate 2 → -0.05
Value of Pp2C1 [DRSC18699] in “z-score, replicate 1”: -0.22
